Data source: PubChem BioAssay AID504804 (Drosophila RNAi Screening Center, 2011)

Test: 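Fly genes whose loss lessens doxorubicin-driven cell death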 (primary screen)
Cell system: Drosophila Kc cells
Knock-down reagent: long dsRNA against Drosophila genes, 0.5 µg dsRNA per well
Time to read-out: 96 h (48 h knock-down, then 48 h drug)
Treatment: doxorubicin 5 µg/ml for 48 h, added 48 h after dsRNA
Detection: 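Viability measured as cellular ATP by luminescence after 48 h knock-down then 48 h doxorubicin at 5 µg/ml; unnormalised plate counts for each replicate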
Scale: raw ATP luminescence: higher = more viable cells, protection from doxorubicin
Rule for the call: 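Active when both duplicate wells lie at least 2 SD above the plate mean and protection is confirmed by rescreening and independent dsRNAs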
The deposit covers about 19,000 reagents; shown is a random part of those that have a named target and a result. Of all reagents, 47 (0.25%) got an active call. 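Signals are raw, not normalised; exact z-scores behind calls not deposited; actives needed confirmation, so some wells reaching 2 SD are inactive.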 A plus sign joins genes that one reagent is predicted to hit.

Depletion of beat-IIIc (GeneID 35037) [DRSC02438] came out at: raw ATP luminescence, replicate 1 = 80353; raw ATP luminescence, replicate 2 = 99070; inactive.
Depletion of beat-IIIc (GeneID 35037) [DRSC02949] gave: raw ATP luminescence, replicate 1 = 60760; raw ATP luminescence, replicate 2 = 94853; inactive.
Tim10 + CG42497 [DRSC04664] gave raw ATP luminescence, replicate 1 = 67903; raw ATP luminescence, replicate 2 = 65640; inactive.
Silencing of ais (GeneID 39979) [DRSC10523] gave: raw ATP luminescence, replicate 1 = 29503; raw ATP luminescence, replicate 2 = 28483; inactive.
Cht4 (GeneID 49815) [DRSC04603] showed raw ATP luminescence, replicate 1 = 72390; raw ATP luminescence, replicate 2 = 38633; inactive.
Silencing of Smg6 (GeneID 42994) [DRSC16029] resulted in: raw ATP luminescence, replicate 1 = 46780; raw ATP luminescence, replicate 2 = 37080; inactive.
Depletion of CG12909 (GeneID 36087) [DRSC06224] came out at: raw ATP luminescence, replicate 1 = 38917; raw ATP luminescence, replicate 2 = 93000; inactive.
Knock-down of Myo95E (GeneID 2768680) [DRSC15821] came out at: raw ATP luminescence, replicate 1 = 51320; raw ATP luminescence, replicate 2 = 43390; inactive.
After knock-down of CG13983 (GeneID 33875) [DRSC02315], the screen gave raw ATP luminescence, replicate 1 = 25133; raw ATP luminescence, replicate 2 = 28910; inactive.
For CG3436 (GeneID 33180) [DRSC00605], the values are raw ATP luminescence, replicate 1 = 77930; raw ATP luminescence, replicate 2 = 59893; inactive.
Knock-down of POLDIP2 (GeneID 40655) [DRSC12194] resulted in: raw ATP luminescence, replicate 1 = 52550; raw ATP luminescence, replicate 2 = 30130; inactive.
For Vha16-1 (GeneID 44307) [DRSC05020], the values are raw ATP luminescence, replicate 1 = 68733; raw ATP luminescence, replicate 2 = 54500; inactive.
For Cyp4ac2 (GeneID 33755) [DRSC03303], the values are raw ATP luminescence, replicate 1 = 27990; raw ATP luminescence, replicate 2 = 33863; inactive.
After knock-down of CG7888 (GeneID 39232) [DRSC10926], the screen gave raw ATP luminescence, replicate 1 = 44000; raw ATP luminescence, replicate 2 = 36590; inactive.
After knock-down of dimm (GeneID 35404) [DRSC03100], the screen gave raw ATP luminescence, replicate 1 = 48003; raw ATP luminescence, replicate 2 = 55337; inactive.
After knock-down of Ugt303B1 (GeneID 42775) [DRSC15141], the record shows raw ATP luminescence, replicate 1 = 48790; raw ATP luminescence, replicate 2 = 49780; inactive.
After knock-down of modSP (GeneID 42032) [DRSC16726], the screen gave raw ATP luminescence, replicate 1 = 69660; raw ATP luminescence, replicate 2 = 55880; inactive.
After knock-down of modSP (GeneID 42032) [DRSC16857] the results were raw ATP luminescence, replicate 1 = 79700; raw ATP luminescence, replicate 2 = 61810; inactive.
Depletion of CG42506 (retired record) + CG43759 [DRSC19543] resulted in: raw ATP luminescence, replicate 1 = 3.65e5; raw ATP luminescence, replicate 2 = 3.21e5; inactive.
With knock-down of CG7655 (GeneID 42128) [DRSC16275] the results were raw ATP luminescence, replicate 1 = 30910; raw ATP luminescence, replicate 2 = 39487; inactive.
Silencing of fzo (GeneID 42745) [DRSC16954] came out at: raw ATP luminescence, replicate 1 = 72610; raw ATP luminescence, replicate 2 = 64190; inactive.
For srp (GeneID 41944) [DRSC13125], the entry reads raw ATP luminescence, replicate 1 = 2.27e5; raw ATP luminescence, replicate 2 = 1.78e5; inactive.
srp (GeneID 41944) [DRSC17068] gave raw ATP luminescence, replicate 1 = 18770; raw ATP luminescence, replicate 2 = 17930; inactive.
After knock-down of CG10324 (GeneID 42028) [DRSC14230], the record shows raw ATP luminescence, replicate 1 = 65660; raw ATP luminescence, replicate 2 = 69190; inactive.
Hus1-like (GeneID 40598) [DRSC12353] showed raw ATP luminescence, replicate 1 = 74070; raw ATP luminescence, replicate 2 = 59717; inactive.
After knock-down of CG1024 (GeneID 40789) [DRSC12496], the record shows raw ATP luminescence, replicate 1 = 64367; raw ATP luminescence, replicate 2 = 56767; inactive.
Silencing of Doa (GeneID 43415) [DRSC13892] came out at: raw ATP luminescence, replicate 1 = 2.74e5; raw ATP luminescence, replicate 2 = 2.23e5; inactive.
Doa (GeneID 43415) [DRSC13893] gave raw ATP luminescence, replicate 1 = 2.26e5; raw ATP luminescence, replicate 2 = 1.95e5; inactive.
Doa (GeneID 43415) [DRSC13895] showed raw ATP luminescence, replicate 1 = 2.49e5; raw ATP luminescence, replicate 2 = 2.01e5; inactive.
Knock-down of Doa (GeneID 43415) [DRSC13896] resulted in: raw ATP luminescence, replicate 1 = 2.54e5; raw ATP luminescence, replicate 2 = 2.07e5; inactive.
After knock-down of Doa (GeneID 43415) [DRSC13897], the screen gave raw ATP luminescence, replicate 1 = 2.43e5; raw ATP luminescence, replicate 2 = 2.24e5; inactive.

As entered above.
For “raw ATP luminescence, replicate 1”, Doa (GeneID 43415) [DRSC13895] reads 2.49e5
For “outcome”, dimm (GeneID 35404) [DRSC03100] has inactive
Entry of srp (GeneID 41944) [DRSC17068] in “raw ATP luminescence, replicate 2”: 17930
Doa (GeneID 43415) [DRSC13892], raw ATP luminescence, replicate 2: 2.23e5
